From PubChem BioAssay AID2685 (National Center for Advancing Translational Sciences (NCATS), 2010)
This is one part of the list. Further columns of the screen follow, without active or inactive calls. Compounds called inactive in the main read-out are mostly missing here. Words in brackets tell the shape of the fitted curve; partial curves, single points and poor fits give uncertain potencies.

Assay: qHTS Assay for Lipid Storage Modulators in Drosophila S3 Cells;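 for cell number change: cells counted by Cell Tracker Red CMTPX staining in the red channel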
Settings: BODIPY lipid droplet fluorescence, 18-24 h; for cell number change: measured here: cell count max response, cells fed with added oleic acid
Summary of the method: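 Drosophila S3 cells loaded with oleic acid (400 uM, as added) and compounds at several concentrations; lipid droplets imaged by 488-nm laser-scanning cytometry, 500–530 nm intensity and object ratio to cell channel. Percent activity normalized to 20 uM Triacsin C.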

[1] = measured here: cell number channel AC50, cells fed with added oleic acid
[2] = measured here: lipid fluorescence (Fed channel) AC50, cells fed with added oleic acid

SMILES | cell number change | AC50 [1] | AC50 [2]
COc1cc2c(cc1OC)CN(CC(=O)Nc1ccc(S(=O)(=O)N(C)C)cc1)CC2 | 47.4% | 0.231 µM [rising, full curve] | 0.146 µM [rising, full curve]
Cn1c(=O)[nH]c(=O)c2c1nc(N/N=C/c1ccncc1)n2Cc1ccc(F)cc1 | 0.121% |  | 2.59 µM [rising, full curve]
O=C(O)c1ccc(N=Nc2c(O)[nH]c3ccccc23)cc1 | -13.5% |  | 9.2 µM [falling, single point]
O=C(Nc1ccc(Cl)cn1)C1CCN(S(=O)(=O)c2cccs2)CC1 | -31.7% |  | 0.82 µM [falling, full curve, poor fit]
O=C(Nc1ccccc1)c1ccc(NC(=O)C2CC2)cc1 | 30.2% | 11.6 µM [rising, partial curve, poor fit] | 1.46 µM [rising, partial curve]
Cc1nc(N(C)Cc2ccccc2)c2nnn(Cc3ccccc3)c2n1 |  |  | 0.58 µM [rising, single point]
Cc1cccc(NC(=O)Nc2cccnc2)c1C | 19.9% |  | 3.26 µM [rising, partial curve]
COC(=O)c1[nH]c2ccc(C)cc2c1NC(=O)C(C)N1CCN(C2CCCCC2)CC1 (configuration not stated) | -0.0646% |  | 4.61 µM [falling, partial curve]
CCN(CC(=O)Nc1c(F)cccc1F)C(=O)/C=C/c1ccc(Br)s1 |  | 0.517 µM [falling, single point] | 29.1 µM [falling, single point]
COc1ccc(Cc2nc3ccc(C(=O)NCc4ncc(C)[nH]4)cc3o2)cc1OC |  |  | 0.116 µM [falling, partial curve, poor fit]
CCOC(=O)CCN1C(=O)c2ccccc2Sc2ncccc21 | -9.86% |  | 
CCOc1ccc2nc(NC(=O)c3ccccn3)sc2c1 | -28.3% |  | 18.4 µM [falling, partial curve]
CS(=O)(=O)N(CC(=O)Nc1ccccc1C(=O)NCc1ccccc1)c1ccc2c(c1)OCCO2 | 9.41% | 2.31 µM [rising, single point] | 3.26 µM [rising, partial curve]
O=C(Nc1ccc(S(=O)(=O)NC2=NCCCCC2)cc1)c1ccc(Cl)cc1Cl | 18% |  | 29.1 µM [rising, single point]
Nc1nc(Nc2ccccc2F)nc(N2CCCC2)c1[N+](=O)[O-] | -2.7% |  | 
CCCN(C(=O)c1cc(S(=O)(=O)N(C)c2ccc(OCC)cc2)ccc1C)C1CCS(=O)(=O)C1 (configuration not stated) | -0.478% |  | 0.461 µM [falling, single point]
Cn1c(CCN2CCCCC2)nc2cc(NC(=O)Nc3ccccc3)ccc21 | -5.5% |  | 3.26 µM [falling, partial curve]
COc1ccc(C2N=C(Nc3ccc(C)cc3)Nc3nc(C)cc(=O)n32)cc1 (configuration not stated) | 16.8% |  | 13 µM [rising, single point]
CCOC(=O)N1CCN(C(=O)Cc2ccc(Cl)cc2)CC1 | 6.22% |  | 0.58 µM [falling, partial curve, poor fit]
Cc1cc(=O)[nH]c(N/N=C/c2ccc(O)c(O)c2)n1 |  | 6.51 µM [rising, single point] | 6.51 µM [rising, single point]

SMILES | cell number change | AC50 [1] | AC50 [2]
O=C(C1CCN(S(=O)(=O)N2CCC3(CC2)OCCO3)CC1)N1CCC(Cc2ccccc2)CC1 | -31.4% | 23.1 µM [falling, single point] | 29.1 µM [falling, single point]
CCOc1ccc(N2C(=O)CC(NCCNc3ccc(C(=O)c4cccs4)cc3)C2=O)cc1 (configuration not stated) | -17.7% | 0.00461 µM [falling, full curve, poor fit] | 
CC1CCCCC1NS(=O)(=O)c1ccc(S(=O)(=O)N2CCN(CCC#N)CC2)cc1 (configuration not stated) |  |  | 6.51 µM [rising, single point]
CCOC(=O)c1sc(N/N=C/c2cccc(C)c2)nc1C | -41.7% | 23.1 µM [falling, single point] | 29.1 µM [falling, single point]
CC(=O)Nc1ccc(OCc2ccc3c(c2)OCO3)cc1 | -24.6% |  | 3.26 µM [rising, full curve]
CCOC(=O)CN(C(=O)CNC(=O)c1cccs1)C(C(=O)NC1CCCC1)c1cccnc1 (configuration not stated) | 1.45% |  | 
COc1cc(-c2cc(C(=O)Nc3ccccc3N3CCOCC3)c3ccccc3n2)cc(OC)c1OC |  | 0.00517 µM [rising, full curve, poor fit] | 0.517 µM [rising, partial curve]
O=C1c2cccc3cccc(c23)N1Cc1cccc(F)c1 | 4.84% |  | 32.6 µM [falling, single point]
O=C(NCCc1c[nH]c2ccccc12)c1ccc([N+](=O)[O-])cc1 | -13.7% |  | 3.66 µM [rising, single point]
CC1CC(C)CN(C(=O)CN2C(=O)NC(c3ccccc3)(c3ccccc3)C2=O)C1 (configuration not stated) | -12.9% | 0.13 µM [falling, full curve, poor fit] | 0.116 µM [falling, full curve, poor fit]
Cc1ccc(P(=O)(CC(=O)O)c2ccc(C)cc2)cc1 | -1.21% |  | 4.61 µM [falling, partial curve]
Cc1ccc(NC(=O)C(C)Sc2nc(-c3ccccc3)cc(=O)[nH]2)cc1 (configuration not stated) | 23.4% |  | 
CCc1ccc(NC(=O)CSc2nnc(-c3cnccn3)n2C)cc1 | -3.99% |  | 11.6 µM [rising, partial curve]
COc1ccc(Cc2nnc(NC(=O)Nc3ccccc3F)s2)cc1 | 0.73% |  | 
CCc1c(C)sc(NC(=O)CN2CCN(C(=O)c3ccco3)CC2)c1C(=O)OC | -25.7% |  | 
COC(=O)c1c(C)[nH]c(O)c1C=Nc1ccc(C(C)C)cc1 | -24.1% |  | 
CCCCN(CC)CCNC(=O)c1[nH]c(C)c(C(C)=O)c1C | -99.9% | 18.4 µM [falling, single point] | 
CCCCn1c(N)c(N(CC)C(=O)CSCc2c(C)noc2C)c(=O)[nH]c1=O | -0.495% |  | 29.1 µM [rising, single point]
O=C(/C(=C/c1ccccc1Cl)c1ccccc1)N1CCOCC1 | -57.9% | 23.1 µM [falling, partial curve] | 29.1 µM [falling, single point]
NS(=O)(=O)c1ccc(O)c(N2C(=O)c3cccc4c(C(=O)c5ccccc5)ccc(c34)C2=O)c1 | 27.1% |  | 

Sorted by molecular weight (falling): three of the compounds above
SMILES | cell number change | AC50 [1] | AC50 [2]
CCc1c(C)sc(NC(=O)CN2CCN(C(=O)c3ccco3)CC2)c1C(=O)OC | -25.7% |  | 
O=C(NCCc1c[nH]c2ccccc12)c1ccc([N+](=O)[O-])cc1 | -13.7% |  | 3.66 µM [rising, single point]
Cc1ccc(P(=O)(CC(=O)O)c2ccc(C)cc2)cc1 | -1.21% |  | 4.61 µM [falling, partial curve]

(listing goes on)

SMILES | cell number change | AC50 [1] | AC50 [2]
Cc1ccc(CN2CC(C(=O)N3CCN(S(=O)(=O)c4ccc(C)cc4C)CC3)CC2=O)cc1 (configuration not stated) | -19.9% |  | 
CCOc1ccc(C(=O)NC2CC3CCCC(C2)N3Cc2ccccc2)cc1 (configuration not stated) | -6.74% |  | 
O=C(CSc1nnnn1Cc1ccccc1)Nc1ccc2c(c1)OCO2 | -29.1% | 4.61 µM [falling, full curve, poor fit] | 6.51 µM [falling, single point]
O=C(Nc1ccc(F)c(Cl)c1)N1CCCC1 | -16.6% |  | 0.146 µM [falling, full curve, poor fit]
Cc1ccc(-c2nn3c(C)nnc3s2)cc1N | -5.25% |  | 
CCOc1ccc(-n2c(C)nc3c(cnn3-c3ccc(Cl)cc3)c2=O)cc1 | 76.8% | 29.1 µM [rising, single point] | 
Cn1c(Cc2cccs2)nnc1SCC(=O)N1CCCc2ccccc21 | 60.5% | 20.6 µM [rising, single point] | 
CCOC(=O)c1sc(-c2ccccc2)cc1N |  |  | 6.51 µM [rising, single point]
COc1ccc(CCN(C)C(=O)c2cc(=O)c3ccccc3o2)cc1OC |  |  | 29.1 µM [falling, partial curve, poor fit]
CCc1noc(C)c1C(=O)N(CC)CC(=O)Nc1cc(Cl)ccc1C | -32.3% | 32.6 µM [falling, partial curve, poor fit] | 25.9 µM [falling, partial curve, poor fit]
Cc1sc2ncnc(N3CCC(C(=O)NNC(=O)c4ccc(F)cc4)CC3)c2c1C | 46.2% | 4.11 µM [rising, full curve] | 2.31 µM [rising, partial curve]
O=C(CSc1nncn1-c1cccnc1)Nc1ccccc1[N+](=O)[O-] | 30.8% | 29.1 µM [rising, single point] | 0.116 µM [falling, single point]
CC(C)OC(=O)CSc1ncnc2c1cnn2Cc1ccccc1 | 3.88% |  | 4.11 µM [falling, full curve, poor fit]
CC1(C)Cc2nc3sc4c(=O)n(CC(N)=O)cnc4c3cc2CO1 | 31.1% | 32.6 µM [rising, single point] | 0.13 µM [rising, full curve, poor fit]
CCOC(=O)c1c(C)[nH]c(C(=O)N2CCN(c3ccc(OC)cc3)CC2)c1C | 26% |  | 
CCCc1cc(=O)[nH]c(SCC(=O)NCC2COc3ccccc3O2)n1 (configuration not stated) | 0.13% |  | 0.116 µM [falling, full curve, poor fit]
CC12CC3CC(C)(C1)CC(C(O)CN1CCOCC1)(C3)C2 (configuration not stated) | -22.4% |  | 0.58 µM [falling, single point]
O=C(Nc1cc(S(=O)(=O)N2CCOCC2)ccc1N1CCCC1)c1cc(F)c(F)cc1Cl |  |  | 6.51 µM [falling, single point]
COc1ccccc1N1CCN(C(=O)c2ccc3c(c2)CCN3S(C)(=O)=O)CC1 | -6.93% |  | 
C=C(C)C1CC=C(C)/C(=N/NC(=S)Nc2ccccc2)C1 (configuration not stated) | 6.28% |  | 
